Among the data in paper PMC4344327, “Region-Specific Activation of oskar mRNA Translation by Inhibition of Bruno-Mediated Repression” (PLoS Genetics, 2015) are binding values, retold here.

Amino acid sequences for entries named in this document (tags omitted). A change or cut given only in a name is not applied to a line headed by its entry.
UniProt O02374: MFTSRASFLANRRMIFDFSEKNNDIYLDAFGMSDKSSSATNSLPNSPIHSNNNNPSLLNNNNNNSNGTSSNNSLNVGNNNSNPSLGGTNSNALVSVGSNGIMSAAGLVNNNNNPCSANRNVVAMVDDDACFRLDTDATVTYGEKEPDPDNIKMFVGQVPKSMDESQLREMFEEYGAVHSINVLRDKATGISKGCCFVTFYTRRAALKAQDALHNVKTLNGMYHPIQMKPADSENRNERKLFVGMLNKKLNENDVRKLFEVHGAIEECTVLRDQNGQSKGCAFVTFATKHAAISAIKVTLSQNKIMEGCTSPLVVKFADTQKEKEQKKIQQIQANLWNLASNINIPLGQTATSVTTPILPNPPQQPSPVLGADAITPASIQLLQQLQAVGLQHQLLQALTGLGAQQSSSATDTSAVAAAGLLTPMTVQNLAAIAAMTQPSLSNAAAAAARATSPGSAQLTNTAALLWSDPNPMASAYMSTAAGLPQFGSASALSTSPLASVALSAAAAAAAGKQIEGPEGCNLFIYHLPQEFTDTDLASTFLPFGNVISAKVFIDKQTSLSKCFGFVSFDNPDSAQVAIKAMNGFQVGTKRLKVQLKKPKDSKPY

These are yes or no findings as the source states them, for the method shown. Binding seen in cells or lysates may run through a third protein. Binding can be weak; no strength is given. For some assays here: Sequences can lack the tags named with a protein.

In assay [1] the target is T1, GST::Cup577–947 (Drosophila) (UniProt Q9VMA3).
T1 sequence: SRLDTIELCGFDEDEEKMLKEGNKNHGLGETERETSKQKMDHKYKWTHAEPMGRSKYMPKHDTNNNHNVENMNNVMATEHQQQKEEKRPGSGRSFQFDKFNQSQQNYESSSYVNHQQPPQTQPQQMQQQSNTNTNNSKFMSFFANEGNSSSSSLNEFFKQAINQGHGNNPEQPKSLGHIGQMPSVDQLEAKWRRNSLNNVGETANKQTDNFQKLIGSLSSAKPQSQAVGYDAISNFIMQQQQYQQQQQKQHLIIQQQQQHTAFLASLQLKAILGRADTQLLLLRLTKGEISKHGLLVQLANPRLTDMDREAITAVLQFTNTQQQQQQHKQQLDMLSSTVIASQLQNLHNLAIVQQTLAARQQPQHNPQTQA
As to the kind of experiment: pull-down; GST::Bru, GST::Cup or GST immobilized on Glutathione Sepharose 4B from E. coli extract and washed; ~100 ng N-terminally His6-tagged Bru protein in 80 μl binding buffer (50mM Tris-Cl pH7.5, 150mM NaCl, 10% glycerol, 1mM DTT, 0.1% IGEPAL-CA-630), 2–3 hr at room temperature; Western blot with anti-His antibody; both purified.

Assay [2] deals with GST::Bru (full-length Bruno fused to GST) (Drosophila) (UniProt O02374). The assay is described as above.

Consider His6::Bru S4E/S7E (from UniProt O02374), for which the figures for the binding result in assay [1] and in assay [2] were “binds” and “binds weakly”, respectively.

As to “His6::Bru S4E/S7E/T135E (from UniProt O02374)”, the figures for the binding result in assay [1] and in assay [2] were “binds weakly” and “no binding (tested: ~100 ng in 80 μl)”, respectively.

On to His6::Bru S7E (from UniProt O02374), for which the binding entry in assay [1] and in assay [2] was “binds” in each case.

For the substance “His6::Bru S7E/T135E (from UniProt O02374)”, the binding entry in assay [1] and in assay [2] was “binds” throughout.
